# Percent effect of library compounds

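Whole-parasite assay of Trypanosoma brucei over 72 hours; the read-out is not stated. Concentration: 30 µM. Direction is inferred from retests: higher values go with stronger inhibition. Values scatter widely below zero; nearly all retest evidence comes from the higher of the two concentrations used. About 64,000 compounds were tested under these conditions; 1.5% (about 940) showed 50% or more at least once.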

The filed quantity is “Percent Effect” (%).
How 0% and 100% were set is not recorded. Most values in the screen are low, and negative values occur.
Compounds were drawn at random from those tested, without regard to their results.

| compound | percent effect |
|---|---|
| `Cc1cc(Br)ccc1NCc1ccc(C(=O)N(C)C)[nH]1` | 3.094 |
| `Cc1c(-c2cc(-c3cnn(C)c3C)n(CC(=O)NC3CC3)n2)cnn1C` | -44.99 |
| `CCC(NCc1ccccn1)c1ccccc1OCC(=O)NC` (stereo not given) | -16.04 |
| `COC(=O)N1CCC(CNC(=O)C2CCN(S(C)(=O)=O)CC2)CC1` | -24.69 |
| `COCCCNC(=O)Cc1cc(-c2ccc(Cl)cc2)on1` | -19.89 |
| `CCc1nc(CN(C)CC(=O)NC(C)C)cs1` | 0.8995 |
| `O=C(CC1CCN(c2ncnc3cccc(F)c23)CC1)N1CCCC1` | -11.44 |
| `COc1cc2c(cc1OC)S(=O)(=O)N(Cc1ccccc1C)C2=O` | -18 |
| `CCCNC(=O)c1ccc2c(c1)C(=O)N(CC(C)C)C2=O` | -15.36 |
| `CCN(Cc1c(F)cccc1F)C(=O)c1ccncc1O` | -5.67 |
| `CC(C)c1nc(CN2CCOC(Cn3cncn3)C2)no1` (stereo not given) | -13.52 |
| `CCc1noc(CC)c1CC(=O)N1CCN(C(C#N)C(C)C)CC1` (stereo not given) | 8.5 |
| `CC(C)c1nsc(N2CCn3c(nnc3C(F)(F)F)C2)n1` | -68.86 |
| `COCCC(=O)N[C@H]1CN(c2nc(C)c3c(n2)CCCC3)C[C@@H]1C1CC1` | -39.5 |
| `O=C(O)C(F)(F)F.[H][C@@]12CCN(c3ncc(F)cn3)[C@]1([H])CC[C@@H](C(=O)NCCOC)O2` | -4.837 |
| `CN(Cc1ccco1)C(=O)C1CSCN1C(=O)c1cccnc1` (stereo not given) | 13.96 |
| `O=C(O)C(F)(F)F.[H][C@@]12OCCN(CC3CCOCC3)[C@@]1([H])CC[C@H]2OCC` | -17.67 |
| `Cc1cnn(CCNc2ncnc3c2CCN(CC2CCOC2)CC3)c1` (stereo not given) | -2.352 |
| `Cn1cc(C(=O)Nc2ccnc(Oc3ccccc3)c2)ccc1=O` | -24.52 |
| `Cc1ccc(F)cc1C(=O)N1CCOCC12CCCC2` | -16.33 |
| `CC(c1ccccc1)N(C)C(=O)CN1CCCc2cc(F)cc(F)c21` (stereo not given) | -2.884 |
| `CCCc1nnc(N2CCC(N3CCCCCC3)CC2)o1` | -47.41 |
| `CS(=O)(=O)N1CCCC(C(=O)N2CCOc3ccccc32)C1` (stereo not given) | -20.17 |
| `CC(C)CCN(C(=O)Nc1cccc(C(=O)N(C)C)c1)C1CC1` | -65.76 |
| `Cc1cnn(C(C)C2CC2)c1NC(=O)c1cnccn1` (stereo not given) | -7.297 |
| `COCCN(Cc1sccc1C)c1nc(C)nc2sccc12` | -237.2 |
| `CC(C)c1nn(C)c(N(C)C)c1CNC1CCC(O)CC1` (stereo not given) | -51.04 |
| `Cc1noc(C)c1CCC(=O)N1CCCN(C)CC1` | 10.85 |
| `O=C(O)C(F)(F)F.O=C(O)C(F)(F)F.[H][C@]12CN(Cc3ccncc3)C[C@@]1([H])OCCN(S(C)(=O)=O)C2` | -52.58 |
| `O=C(O)C(F)(F)F.[H][C@@]12COC[C@]1(CNC(=O)c1ccsc1)CN(Cc1nccs1)C2` | -41.51 |
| `C=C(C)COc1cccc(C(=O)N(CC)Cc2noc(C)n2)c1` | -49.76 |
| `CC(C)n1cnnc1CN(C)Cc1cnc(-c2cccs2)nc1` | -23.13 |
| `CCc1ncc(C(=O)NCCN2CCNC2=O)cn1` | -14.28 |
| `CN(C(=O)NCCCN1CCCC1)C1CCN(c2ccccc2)C1=O` (stereo not given) | -17.14 |
| `COCc1nc(C(=O)N2CCN(Cc3cc(C)on3)CC2)cs1` | -11.34 |
| `CC(=O)N1CCC2(CC1)CN(C(C)C)c1ccc(F)cc12` | -2.399 |
| `CCn1cc(-c2cc(-c3cc(CC(=O)O)cs3)nc(N)c2C#N)c(C)n1` | -31.42 |
| `c1ccc(OCCN2CCCCC2Cn2cncn2)cc1` (stereo not given) | -35.26 |
| `Cc1ccc(S(=O)(=O)c2ncccc2CN2CCN(CCO)CC2)cc1` | -23.75 |
| `C=C(C)CN1CCN(Cc2cnc(-c3ccc(OC)cc3)nc2)CC1.O=C(O)CC(O)(CC(=O)O)C(=O)O` | 2.32 |
| `Cc1nc(CC(=O)N2CCC[C@H]2c2nc(C(C)C)no2)cs1` | -6.955 |
| `Cn1nc(CN2CCCCC2)c2c1CN(C(=O)c1ccoc1)C2` | -6.065 |
| `CS(=O)(=O)Cc1nc(CN2CCc3ccccc3CC2)cs1` | 3.123 |
| `CCN(C)CCNC(=O)Cc1nc(-c2ccco2)oc1C` | -21.51 |
| `Cc1nccc(N[C@H]2CN(CCC(=O)NC3CCCC3)C[C@@H]2C2CC2)n1` | -6.12 |
| `OC(c1ccccn1)C1CCN(Cc2cc3n(n2)CCNC3)CC1` (stereo not given) | -21.55 |
| `Cn1ncc2c1CN(Cc1ccccc1F)CC2COCC1CC1.O=C(O)C(F)(F)F.O=C(O)C(F)(F)F` (stereo not given) | -34.69 |
| `Cc1cc(F)c2c(c1)CCCN2Cc1cc(=O)n(C)c(=O)n1C` | -43.35 |
| `CCc1noc(C(C)N2CCN(C(=O)CN3CCOCC3)CC2)n1` (stereo not given) | 11.5 |
| `O=C(NCC1(c2ccc(F)cc2)CCC1)N1CCC2(C1)OCCO2` | -9.979 |
| `Cc1cc(C(F)(F)F)c2c(=O)n(Cc3cc(C)on3)n(C)c2n1` | -5.121 |
| `Cc1ccc(CN2CCC3(C2)C(=O)N(CC(C)C)c2ccccc23)s1` (stereo not given) | -8.12 |
| `COc1ccc(CS(=O)(=O)CC(=O)NCC2CC2)cc1F` | 21.05 |
| `CC(=O)N(C)[C@H]1CC[C@]2(CC1)CNC(=O)c1cc(C)ccc1O2` | 20.91 |
| `CC(=O)N(Cc1ncc(C)o1)C1CCN(CCc2cccs2)C1` (stereo not given) | -14.7 |
| `COCc1cn(C2CCN(Cc3ccc(Cl)s3)CC2)nn1` | -5.383 |
| `[H][C@]12C[C@@H](Cn3cncn3)N(C(C)=O)[C@@]1([H])CCN(C(=O)c1ccoc1)C2` | -3.489 |
| `CNS(=O)(=O)Cc1ccc(CNc2ccc(C#N)cn2)cc1` | 11.9 |
| `CC(C)Cc1noc(CN2CCCC(CNS(N)(=O)=O)C2)n1` (stereo not given) | -3.462 |
| `CCC(O)(CNCc1cc[nH]n1)c1ccc(Br)cc1` (stereo not given) | -66.02 |
| `[H][C@]12CC[C@]([H])(CN(Cc3cscn3)C1)N(Cc1cc(CC(C)C)[nH]n1)C2` | 9.065 |
| `COc1cccc(CN2CCC(c3nn(CCN)c4nccnc34)C2)c1` (stereo not given) | 3.436 |
| `CC(C)(C)C(=O)NCCC1CN(Cc2ccccc2F)CCO1` (stereo not given) | -10.99 |
| `Cc1nnn2c1COCC(CNCc1nccs1)C2.O=C(O)C(F)(F)F` (stereo not given) | -21.32 |
| `CCc1nnc(CN(C)C(=O)C2CC(=O)N(C3CC3)C2)o1` (stereo not given) | 26.97 |
| `CCc1nc(NS(=O)(=O)c2cccc(F)c2C)no1` | -4.795 |
| `Cc1nc(C)c(C(=O)Nc2cc(N3CCC(C)CC3)ncn2)s1` | -16.43 |
| `Cc1nn(C)c(C)c1CC(=O)N1CCCC(n2cccn2)C1` (stereo not given) | 20.2 |
| `O=C(NCc1ccco1)N(CCCO)C1CCCc2ccccc21` (stereo not given) | -9.018 |
| `CO[C@@]1(C)C[C@@H](O)C12CCN(C(=O)c1ccccc1C(C)=O)CC2` | 37.01 |
| `O=C(c1cc(=O)n(-c2ccccc2)[nH]1)N1CCOCC(O)C1` (stereo not given) | 2.817 |
| `COc1ccc(Oc2cncc(C3CCCN3C(C)=O)n2)cc1` (stereo not given) | -35.37 |
| `Cc1nc(CN2CCN(C(=O)c3ccn(C)c(=O)c3)CC2)cs1` | 6.849 |

The first 9 entries again:

{"compound": "Cc1cc(Br)ccc1NCc1ccc(C(=O)N(C)C)[nH]1", "percent effect": 3.094}
{"compound": "Cc1c(-c2cc(-c3cnn(C)c3C)n(CC(=O)NC3CC3)n2)cnn1C", "percent effect": -44.99}
{"compound": "CCC(NCc1ccccn1)c1ccccc1OCC(=O)NC", "stereo": "stereo not given", "percent effect": -16.04}
{"compound": "COC(=O)N1CCC(CNC(=O)C2CCN(S(C)(=O)=O)CC2)CC1", "percent effect": -24.69}
{"compound": "COCCCNC(=O)Cc1cc(-c2ccc(Cl)cc2)on1", "percent effect": -19.89}
{"compound": "CCc1nc(CN(C)CC(=O)NC(C)C)cs1", "percent effect": 0.8995}
{"compound": "O=C(CC1CCN(c2ncnc3cccc(F)c23)CC1)N1CCCC1", "percent effect": -11.44}
{"compound": "COc1cc2c(cc1OC)S(=O)(=O)N(Cc1ccccc1C)C2=O", "percent effect": -18}
{"compound": "CCCNC(=O)c1ccc2c(c1)C(=O)N(CC(C)C)C2=O", "percent effect": -15.36}

Data taken from ChEMBL document CHEMBL3988442, “University of Dundee, Small-Polar-MMV Screening Library” (2021).